# Data taken from publication PMC11535217.
# Sequences of proteins named here, by UniProt entry; tags and fusion partners are left off. Residues count along the entry.
# UniProt O00206, residues 24-839: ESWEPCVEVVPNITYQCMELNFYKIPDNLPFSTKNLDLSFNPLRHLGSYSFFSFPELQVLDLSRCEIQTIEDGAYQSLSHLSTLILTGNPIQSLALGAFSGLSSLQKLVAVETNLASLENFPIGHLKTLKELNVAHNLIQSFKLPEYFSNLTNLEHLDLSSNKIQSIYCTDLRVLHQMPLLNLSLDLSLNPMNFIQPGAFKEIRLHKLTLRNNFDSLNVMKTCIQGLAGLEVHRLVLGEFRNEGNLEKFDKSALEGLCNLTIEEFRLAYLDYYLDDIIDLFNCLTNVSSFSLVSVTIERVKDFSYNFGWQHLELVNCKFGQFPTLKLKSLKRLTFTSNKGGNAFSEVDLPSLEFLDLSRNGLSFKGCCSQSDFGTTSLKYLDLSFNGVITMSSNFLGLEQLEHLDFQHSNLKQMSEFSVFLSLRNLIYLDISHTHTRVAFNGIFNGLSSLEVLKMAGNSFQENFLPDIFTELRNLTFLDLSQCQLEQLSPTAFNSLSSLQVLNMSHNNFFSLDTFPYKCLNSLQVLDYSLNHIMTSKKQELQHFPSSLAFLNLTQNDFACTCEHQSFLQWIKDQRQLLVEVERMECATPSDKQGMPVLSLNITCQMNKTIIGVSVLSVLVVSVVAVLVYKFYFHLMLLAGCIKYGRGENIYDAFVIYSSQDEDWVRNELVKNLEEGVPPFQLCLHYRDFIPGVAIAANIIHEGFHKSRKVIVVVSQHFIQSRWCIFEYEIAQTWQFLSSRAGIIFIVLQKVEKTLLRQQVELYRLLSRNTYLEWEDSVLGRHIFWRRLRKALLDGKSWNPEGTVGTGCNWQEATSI
# UniProt Q92793: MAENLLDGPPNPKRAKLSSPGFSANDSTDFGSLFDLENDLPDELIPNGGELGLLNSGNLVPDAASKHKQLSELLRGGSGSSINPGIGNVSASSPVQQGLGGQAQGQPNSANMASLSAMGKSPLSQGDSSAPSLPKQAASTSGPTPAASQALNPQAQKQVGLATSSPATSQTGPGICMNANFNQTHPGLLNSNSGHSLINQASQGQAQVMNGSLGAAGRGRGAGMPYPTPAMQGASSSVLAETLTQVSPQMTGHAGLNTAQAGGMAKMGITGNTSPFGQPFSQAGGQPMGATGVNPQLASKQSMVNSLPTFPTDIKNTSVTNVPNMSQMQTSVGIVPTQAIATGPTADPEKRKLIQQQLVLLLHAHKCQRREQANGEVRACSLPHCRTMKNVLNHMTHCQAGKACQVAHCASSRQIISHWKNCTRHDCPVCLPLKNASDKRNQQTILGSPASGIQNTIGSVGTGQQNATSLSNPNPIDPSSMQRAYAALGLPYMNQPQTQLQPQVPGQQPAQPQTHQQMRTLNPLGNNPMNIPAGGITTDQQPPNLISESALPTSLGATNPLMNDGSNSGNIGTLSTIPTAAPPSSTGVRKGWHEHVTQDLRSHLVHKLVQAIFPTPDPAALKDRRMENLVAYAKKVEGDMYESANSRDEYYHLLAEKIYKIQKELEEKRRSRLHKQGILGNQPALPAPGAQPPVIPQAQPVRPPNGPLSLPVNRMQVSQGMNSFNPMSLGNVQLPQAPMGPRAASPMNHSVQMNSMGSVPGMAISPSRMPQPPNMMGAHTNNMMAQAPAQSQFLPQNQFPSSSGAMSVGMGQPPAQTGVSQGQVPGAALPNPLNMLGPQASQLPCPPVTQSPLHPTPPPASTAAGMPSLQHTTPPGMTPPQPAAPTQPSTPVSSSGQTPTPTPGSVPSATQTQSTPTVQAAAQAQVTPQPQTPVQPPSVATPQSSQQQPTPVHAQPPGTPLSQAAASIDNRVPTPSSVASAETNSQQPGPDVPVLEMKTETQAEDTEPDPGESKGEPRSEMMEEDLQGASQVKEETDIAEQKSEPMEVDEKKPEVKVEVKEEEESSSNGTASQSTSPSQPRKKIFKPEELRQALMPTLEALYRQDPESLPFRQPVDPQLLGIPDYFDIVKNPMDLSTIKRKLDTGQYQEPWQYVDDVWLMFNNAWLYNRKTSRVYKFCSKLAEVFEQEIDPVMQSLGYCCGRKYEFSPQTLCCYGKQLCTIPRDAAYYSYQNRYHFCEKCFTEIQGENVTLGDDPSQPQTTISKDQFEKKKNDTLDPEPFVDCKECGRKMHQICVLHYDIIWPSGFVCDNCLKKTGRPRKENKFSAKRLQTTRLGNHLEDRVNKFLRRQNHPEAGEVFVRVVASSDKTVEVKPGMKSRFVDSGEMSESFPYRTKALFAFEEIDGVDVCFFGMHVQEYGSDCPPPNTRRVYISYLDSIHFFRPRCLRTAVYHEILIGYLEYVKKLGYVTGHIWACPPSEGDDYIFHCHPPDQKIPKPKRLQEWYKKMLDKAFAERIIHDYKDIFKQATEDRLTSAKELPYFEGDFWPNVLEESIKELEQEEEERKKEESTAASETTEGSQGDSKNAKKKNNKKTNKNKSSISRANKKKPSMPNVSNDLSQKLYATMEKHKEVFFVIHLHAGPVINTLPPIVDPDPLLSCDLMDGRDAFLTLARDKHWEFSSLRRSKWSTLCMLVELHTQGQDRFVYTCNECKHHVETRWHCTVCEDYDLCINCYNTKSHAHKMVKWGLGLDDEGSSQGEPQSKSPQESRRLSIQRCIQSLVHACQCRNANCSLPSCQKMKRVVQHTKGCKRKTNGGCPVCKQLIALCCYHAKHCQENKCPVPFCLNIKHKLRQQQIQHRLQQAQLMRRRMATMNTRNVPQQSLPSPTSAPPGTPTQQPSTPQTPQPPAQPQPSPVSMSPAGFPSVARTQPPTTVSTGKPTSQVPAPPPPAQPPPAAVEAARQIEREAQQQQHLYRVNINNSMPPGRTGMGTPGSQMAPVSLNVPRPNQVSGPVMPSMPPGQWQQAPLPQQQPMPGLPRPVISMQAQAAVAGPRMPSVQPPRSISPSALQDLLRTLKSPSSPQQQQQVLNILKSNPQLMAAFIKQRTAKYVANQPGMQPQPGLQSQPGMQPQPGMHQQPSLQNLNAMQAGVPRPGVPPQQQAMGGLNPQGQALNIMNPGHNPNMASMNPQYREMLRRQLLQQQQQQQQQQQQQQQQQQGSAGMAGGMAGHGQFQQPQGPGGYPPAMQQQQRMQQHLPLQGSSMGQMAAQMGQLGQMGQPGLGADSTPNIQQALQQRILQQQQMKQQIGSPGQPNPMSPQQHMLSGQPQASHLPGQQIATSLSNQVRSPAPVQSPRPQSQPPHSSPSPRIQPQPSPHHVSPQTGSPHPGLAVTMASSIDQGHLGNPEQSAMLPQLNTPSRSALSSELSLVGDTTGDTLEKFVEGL
# These are yes or no findings as the source states them, for the method shown. In cells and extracts the contact can be indirect. These calls come from enrichment with a bait or labelling near it, and not all partners need be listed.
# Target: Toll-like receptor 4 (TLR4), endogenous in THP-1-derived macrophages (human (endogenous in THP-1)) (UniProt O00206)
# Test: affinity purification with mass spectrometry; THP-1 cells induced into macrophages with 100 ng/ml PMA, 100 ng/mL LPS for 30 min; immunoprecipitation with a TLR4 antibody, mass spectrometry of TLR4-associated proteins
substance,measurement,value
"CREB-binding protein (CBP), endogenous in THP-1-derived macrophages (from UniProt Q92793 1-2442) (enzyme)",binding,binds
